Experimental data as given in US20170189504A1, “NOVEL PEPTIDES AND COMBINATION OF PEPTIDES FOR USE IN IMMUNOTHERAPY AGAINST VARIOUS CANCERS” (immatics biotechnologies GmbH, priority 2015, published 2017).
For some of these results: For expression read-outs the peptide stands for its source gene, whose mRNA was measured; the gene is not named for every peptide.

How the values were obtained:
[1] = test system: HLA-A*24; assay: Identification and relative LC-MS quantitation of HLA-A*24-presented tumor-associated peptides on tissue samples (presentation profiles, Tables 14A, 14B, 16, FIG. 1); design: species or system human; key to Presentation score GC / Presentation score NSCLC / Presentation score PCA / Presentation score GB / Presentation score HCC / Presentation score RCC: specifically presented on tumors (++++); very highly over-presented on tumors compared to a panel of normal tissues (+++); highly over-presented on tumors compared to a panel of normal tissues (++); over-presented on tumors compared to a panel of normal tissues (+); conditions: for Presentation score GB: glioblastoma (N = 18) vs panel of normal tissues (N = 70); for Presentation score NSCLC: non-small cell lung cancer (N = 91) vs panel of normal tissues (N = 70); for Presentation score PCA: prostate cancer (N = 40) vs panel of normal tissues (N = 70); for Peptide Presentation on cancer entities: Table 14A, HLA-A*24-binding tumor-associated peptides, cancer entities on which the peptide was found presented
[2] = test system: source genes (mRNA); assay: Gene and exon expression of source genes, TCGA tumor samples compared with normal tissue samples (Lonsdale, 2013) (Table 17); design: species or system human; conditions: tumor expression more than 2-fold above highest 75% percentile of high and medium risk normal tissues; for Target coverage: over-expression category of source gene, BLCA: Bladder urothelial carcinoma (N = 408); for Target coverage: over-expression category of source gene, BRCA: Breast cancer (N = 1104); for Target coverage: over-expression category of source gene, CHOL: Cholangiocarcinoma (N = 36); for Target coverage: over-expression category of source gene, READ: Colon and rectal adenocarcinoma (N = 167); for Target coverage: over-expression category of source gene, COAD: Colon and rectal adenocarcinoma (N = 462); for Target coverage: over-expression category of source gene, GBM: Glioblastoma multiforme (N = 169); for Target coverage: over-expression category of source gene, LIHC: Liver hepatocellular carcinoma (N = 374); for Target coverage: over-expression category of source gene, LGG: Lower grade glioma (N = 534); for Target coverage: over-expression category of source gene, LUSC: Lung squamous cell carcinoma (N = 503); for Target coverage: over-expression category of source gene, DLBC: Lymphoid neoplasm diffuse large B-cell lymphoma (N = 48); for Target coverage: over-expression category of source gene, OV: Ovarian serous cystadenocarcinoma (N = 309); for Target coverage: over-expression category of source gene, PRAD: Prostate adenocarcinoma (N = 498); for Target coverage: over-expression category of source gene, SKCM: Skin cutaneous melanoma (N = 473); for Target coverage: over-expression category of source gene, UCEC: Uterine corpus endometrial carcinoma (N = 546); for Target coverage: over-expression category of source gene, LAML: Acute Myeloid Leukemia (N = 173); for Target coverage: over-expression category of source gene, ESCA: Esophageal cancer (N = 185); for Target coverage: over-expression category of source gene, LUAD: Lung adenocarcinoma (N = 517); for Target coverage: over-expression category of source gene, STAD: Stomach adenocarcinoma (N = 415)
[3] = test system: source genes (mRNA); assay: Expression profiling of source genes by in-house RNASeq of tumor and normal tissues (Table 18, FIG. 2); design: species or system human; key: very highly over-expressed in tumors compared to a panel of normal tissues (+++); highly over-expressed in tumors compared to a panel of normal tissues (++); over-expressed in tumors compared to a panel of normal tissues (+); conditions: source gene of peptide; for Expression score GB: glioblastoma (N = 24) vs panel of normal tissues; for Expression score OC: ovarian cancer (N = 12) vs panel of normal tissues; for Expression score NHL: non-Hodgkin lymphoma (N = 10) vs panel of normal tissues; for Expression score NSCLC: non-small cell lung cancer (N = 11) vs panel of normal tissues; for Expression score SCLC: small cell lung cancer (N = 10) vs panel of normal tissues

In the case of “283: peptide found in ALKBH2 (gene looked up) (TYGDAGLTYTF; listed as Homo sapiens) [compound 283]”, the “Presentation score GC” value ([1]; HLA-A*24 peptides, gastric cancer (N = 44) vs panel of normal tissues (N = 70)) is reported as “++”, the “Presentation score GB” value ([1]; HLA-A*24 peptides) is reported as “+” and the “Presentation score NSCLC” value ([1]; HLA-A*24 peptides) is reported as “+++”. For the same substance, the “Presentation score PCA” value ([1]; HLA-A*24 peptides) was “+++”, the “Presentation score RCC” value ([1]; HLA-A*24 peptides, renal cell carcinoma (N = 2) vs panel of normal tissues (N = 70)) was “+++” and the “Peptide Presentation on cancer entities” value [1] was “GB, GC, NSCLC, PCA, RCC”. The “Target coverage: over-expression category of source gene, BLCA” value [2] was “C (>=5% of tumors above the cutoff, but <20%)”, the “Target coverage: over-expression category of source gene, BRCA” value [2] was “C (>=5% of tumors above the cutoff, but <20%)” and the “Target coverage: over-expression category of source gene, CHOL” value [2] was “C (>=5% of tumors above the cutoff, but <20%)”. The “Target coverage: over-expression category of source gene, READ” value [2] was “C (>=5% of tumors above the cutoff, but <20%)”, the “Target coverage: over-expression category of source gene, COAD” value [2] was “C (>=5% of tumors above the cutoff, but <20%)” and the “Target coverage: over-expression category of source gene, GBM” value [2] was “B (>= 20% of tumors above the cutoff, but <50%)”. For the same substance, the “Target coverage: over-expression category of source gene, LIHC” value [2] was “B (>= 20% of tumors above the cutoff, but <50%)”, the “Target coverage: over-expression category of source gene, LGG” value [2] was “B (>= 20% of tumors above the cutoff, but <50%)” and the “Target coverage: over-expression category of source gene, LUSC” value [2] was “C (>=5% of tumors above the cutoff, but <20%)”. The “Target coverage: over-expression category of source gene, DLBC” value [2] was “C (>=5% of tumors above the cutoff, but <20%)”, the “Target coverage: over-expression category of source gene, OV” value [2] was “C (>=5% of tumors above the cutoff, but <20%)” and the “Target coverage: over-expression category of source gene, PRAD” value [2] was “B (>= 20% of tumors above the cutoff, but <50%)”. For the same substance, the “Target coverage: over-expression category of source gene, SKCM” value [2] was “C (>=5% of tumors above the cutoff, but <20%)”, the “Target coverage: over-expression category of source gene, UCEC” value [2] was “B (>= 20% of tumors above the cutoff, but <50%)” and the “Expression score GB” value [3] was “+”. For the same substance, the “Expression score HCC” value ([3]; hepatocellular carcinoma (N = 15) vs panel of normal tissues) was “+” and the “Expression score OC” value [3] was “+”.

In the case of “284: peptide found in NCAPD3 (gene looked up) (RYLNKAFHI; listed as Homo sapiens) [compound 284]”, the “Presentation score PCA” value ([1]; HLA-A*24 peptides) is reported as “++++”, the “Peptide Presentation on cancer entities” value [1] is reported as “PCA” and the “Target coverage: over-expression category of source gene, LAML” value [2] is reported as “A (>=50% of tumors above the cutoff)”. The “Target coverage: over-expression category of source gene, BLCA” value [2] was “C (>=5% of tumors above the cutoff, but <20%)”, the “Target coverage: over-expression category of source gene, BRCA” value [2] was “B (>= 20% of tumors above the cutoff, but <50%)” and the “Target coverage: over-expression category of source gene, READ” value [2] was “B (>= 20% of tumors above the cutoff, but <50%)”. The “Target coverage: over-expression category of source gene, COAD” value [2] was “B (>= 20% of tumors above the cutoff, but <50%)”, the “Target coverage: over-expression category of source gene, ESCA” value [2] was “A (>=50% of tumors above the cutoff)” and the “Target coverage: over-expression category of source gene, GBM” value [2] was “C (>=5% of tumors above the cutoff, but <20%)”. The “Target coverage: over-expression category of source gene, LGG” value [2] was “C (>=5% of tumors above the cutoff, but <20%)”, the “Target coverage: over-expression category of source gene, LUAD” value [2] was “C (>=5% of tumors above the cutoff, but <20%)” and the “Target coverage: over-expression category of source gene, LUSC” value [2] was “B (>= 20% of tumors above the cutoff, but <50%)”. The “Target coverage: over-expression category of source gene, DLBC” value [2] was “C (>=5% of tumors above the cutoff, but <20%)”, the “Target coverage: over-expression category of source gene, OV” value [2] was “B (>= 20% of tumors above the cutoff, but <50%)” and the “Target coverage: over-expression category of source gene, PRAD” value [2] was “A (>=50% of tumors above the cutoff)”. The “Target coverage: over-expression category of source gene, SKCM” value [2] was “C (>=5% of tumors above the cutoff, but <20%)”, the “Target coverage: over-expression category of source gene, STAD” value [2] was “B (>= 20% of tumors above the cutoff, but <50%)” and the “Target coverage: over-expression category of source gene, UCEC” value [2] was “C (>=5% of tumors above the cutoff, but <20%)”. The “Expression score GB” value [3] was “+”, the “Expression score NHL” value [3] was “+” and the “Expression score NSCLC” value [3] was “+”. For the same substance, the “Expression score OC” value [3] was “+”, the “Expression score PCA” value ([3]; prostate cancer and benign prostate hyperplasia (N = 5) vs panel of normal tissues) was “+++” and the “Expression score SCLC” value [3] was “+”.

With “285: peptide found in MSH6 (gene looked up) (HYPPVQVLF; listed as Homo sapiens) [compound 285]” the “Presentation score GB” value ([1]; HLA-A*24 peptides) was “+”, the “Presentation score NSCLC” value ([1]; HLA-A*24 peptides) was “+” and the “Peptide Presentation on cancer entities” value [1] was “GB, GC, NSCLC, HCC, PCA”. The “Target coverage: over-expression category of source gene, LAML” value [2] was “A (>=50% of tumors above the cutoff)”, the “Target coverage: over-expression category of source gene, BLCA” value [2] was “A (>=50% of tumors above the cutoff)” and the “Target coverage: over-expression category of source gene, BRCA” value [2] was “A (>=50% of tumors above the cutoff)”. For the same substance, the “Target coverage: over-expression category of source gene, CHOL” value [2] was “A (>=50% of tumors above the cutoff)”, the “Target coverage: over-expression category of source gene, KIRC” value ([2]; Clear cell kidney carcinoma (N = 534)) was “A (>=50% of tumors above the cutoff)” and the “Target coverage: over-expression category of source gene, READ” value [2] was “A (>=50% of tumors above the cutoff)”. The “Target coverage: over-expression category of source gene, COAD” value [2] was “A (>=50% of tumors above the cutoff)”, the “Target coverage: over-expression category of source gene, ESCA” value [2] was “A (>=50% of tumors above the cutoff)” and the “Target coverage: over-expression category of source gene, GBM” value [2] was “A (>=50% of tumors above the cutoff)”. The “Target coverage: over-expression category of source gene, LIHC” value [2] was “A (>=50% of tumors above the cutoff)”, the “Target coverage: over-expression category of source gene, LGG” value [2] was “B (>= 20% of tumors above the cutoff, but <50%)” and the “Target coverage: over-expression category of source gene, LUAD” value [2] was “A (>=50% of tumors above the cutoff)”. The “Target coverage: over-expression category of source gene, LUSC” value [2] was “A (>=50% of tumors above the cutoff)”, the “Target coverage: over-expression category of source gene, DLBC” value [2] was “A (>=50% of tumors above the cutoff)” and the “Target coverage: over-expression category of source gene, OV” value [2] was “A (>=50% of tumors above the cutoff)”. The “Target coverage: over-expression category of source gene, PAAD” value ([2]; Pancreatic ductal adenocarcinoma (N = 179)) was “B (>= 20% of tumors above the cutoff, but <50%)”, the “Target coverage: over-expression category of source gene, KIRP” value ([2]; Papillary kidney carcinoma (N = 291)) was “B (>= 20% of tumors above the cutoff, but <50%)” and the “Target coverage: over-expression category of source gene, PRAD” value [2] was “A (>=50% of tumors above the cutoff)”. For the same substance, the “Target coverage: over-expression category of source gene, SKCM” value [2] was “A (>=50% of tumors above the cutoff)”, the “Target coverage: over-expression category of source gene, STAD” value [2] was “B (>= 20% of tumors above the cutoff, but <50%)” and the “Target coverage: over-expression category of source gene, UCEC” value [2] was “A (>=50% of tumors above the cutoff)”. The “Expression score BRCA” value ([3]; BRCA tumors vs panel of normal tissues) was “+”, the “Expression score AML” value ([3]; acute myeloid leukemia (N = 11) vs panel of normal tissues) was “+” and the “Expression score OSCAR” value ([3]; esophageal cancer incl. gastric-esophageal junction (N = 11) vs panel of normal tissues) was “+”. For the same substance, the “Expression score NHL” value [3] was “+”, the “Expression score NSCLC” value [3] was “+” and the “Expression score OC” value [3] was “++”. For the same substance, the “Expression score SCLC” value [3] was “++” and the “Expression score UBC” value ([3]; urinary bladder cancer (N = 10) vs panel of normal tissues) was “+”.
